This is an account of results in publication PMC9737475.

The chains behind the UniProt entries cited, without tags or fusion partners.
UniProt P22736: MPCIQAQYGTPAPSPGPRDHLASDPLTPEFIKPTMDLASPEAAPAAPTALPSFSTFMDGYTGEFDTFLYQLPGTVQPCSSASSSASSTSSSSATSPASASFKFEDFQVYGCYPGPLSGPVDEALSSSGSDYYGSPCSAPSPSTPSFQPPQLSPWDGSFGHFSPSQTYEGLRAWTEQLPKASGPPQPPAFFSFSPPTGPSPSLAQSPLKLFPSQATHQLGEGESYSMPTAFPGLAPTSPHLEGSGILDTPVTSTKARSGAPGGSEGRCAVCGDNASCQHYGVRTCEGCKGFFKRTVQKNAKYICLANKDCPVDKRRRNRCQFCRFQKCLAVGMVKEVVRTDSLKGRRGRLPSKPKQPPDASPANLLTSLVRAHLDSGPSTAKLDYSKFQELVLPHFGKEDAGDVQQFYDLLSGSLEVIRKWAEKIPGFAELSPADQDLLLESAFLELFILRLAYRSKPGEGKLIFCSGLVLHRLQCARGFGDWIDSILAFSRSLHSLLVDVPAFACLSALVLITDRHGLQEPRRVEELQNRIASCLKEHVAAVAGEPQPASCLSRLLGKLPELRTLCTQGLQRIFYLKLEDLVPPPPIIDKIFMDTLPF
UniProt P10415: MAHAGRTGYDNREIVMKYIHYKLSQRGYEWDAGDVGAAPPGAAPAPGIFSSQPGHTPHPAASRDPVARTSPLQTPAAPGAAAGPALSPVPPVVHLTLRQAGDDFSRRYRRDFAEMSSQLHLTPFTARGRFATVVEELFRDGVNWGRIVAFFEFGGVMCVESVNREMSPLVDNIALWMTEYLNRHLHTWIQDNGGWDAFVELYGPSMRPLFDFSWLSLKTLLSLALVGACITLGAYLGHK

Assay [1] addresses GFP-Nur77 (UniProt P22736). In words: condition: only without Bkh126 treatment of the cells; co-IP; HepG2 cells co-transfected with GFP-Nur77 and Myc-Bcl-2, without Bkh126 (control); lysates precipitated with anti-GFP and protein A/G-sepharose, 4 °C, blotted with anti-GFP and anti-Myc; IP lysis buffer 10 mM Tris-HCl pH 8.0, 150 mM NaCl, 10 mM EDTA, 0.2% NP-40.
For assay [2], the target named is GFP-Nur77 (UniProt P22736). In words: co-IP; HepG2 cells co-transfected with GFP-Nur77 and Myc-Bcl-2, treated with 20 uM Bkh126 for 2 h (also in the presence of SP600125, JNK inhibitor, or SB203580, p38 inhibitor); lysates precipitated with anti-GFP and protein A/G-sepharose, 4 °C, blotted with anti-GFP and anti-Myc; IP lysis buffer 10 mM Tris-HCl pH 8.0, 150 mM NaCl, 10 mM EDTA, 0.2% NP-40.

No constants are given. Whether binding was seen depends on the method and setting. In cells and extracts the contact can be indirect. Some binding calls cover weakened binding; strength is not graded here.

With Myc-Bcl-2 (from UniProt P10415 1-239), the results for the binding entry in assay [1] and in assay [2] were “no binding” and “binds”, respectively.
